# No constants are given. Whether binding was seen depends on the method and setting. Binding seen in cells or lysates may run through a third protein. Some binding calls cover weakened binding; strength is not graded here.
# Sequences of proteins named here, by UniProt entry; tags and fusion partners are left off. A change or cut given only in a name is not applied to a line headed by its entry.
# UniProt Q61188: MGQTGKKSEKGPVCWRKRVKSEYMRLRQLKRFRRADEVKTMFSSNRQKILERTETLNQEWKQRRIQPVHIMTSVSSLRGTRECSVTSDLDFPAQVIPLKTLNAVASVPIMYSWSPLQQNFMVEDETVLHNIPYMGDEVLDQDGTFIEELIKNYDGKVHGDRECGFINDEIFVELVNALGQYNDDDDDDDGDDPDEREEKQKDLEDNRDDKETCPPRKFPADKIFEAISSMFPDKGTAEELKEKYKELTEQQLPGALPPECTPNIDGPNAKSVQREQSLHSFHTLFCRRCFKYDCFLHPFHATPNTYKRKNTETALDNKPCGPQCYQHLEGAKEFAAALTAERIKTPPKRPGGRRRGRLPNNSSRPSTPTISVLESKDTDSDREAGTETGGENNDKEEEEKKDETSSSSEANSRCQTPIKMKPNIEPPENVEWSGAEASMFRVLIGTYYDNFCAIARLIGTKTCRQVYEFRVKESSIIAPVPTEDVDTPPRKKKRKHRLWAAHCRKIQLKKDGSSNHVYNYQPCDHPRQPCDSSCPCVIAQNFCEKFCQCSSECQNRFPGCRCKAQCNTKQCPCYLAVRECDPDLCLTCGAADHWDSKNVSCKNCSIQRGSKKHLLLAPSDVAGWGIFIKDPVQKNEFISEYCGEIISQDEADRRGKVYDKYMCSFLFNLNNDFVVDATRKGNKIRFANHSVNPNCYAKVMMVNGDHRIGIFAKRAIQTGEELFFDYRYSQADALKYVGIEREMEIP
# UniProt Q15022: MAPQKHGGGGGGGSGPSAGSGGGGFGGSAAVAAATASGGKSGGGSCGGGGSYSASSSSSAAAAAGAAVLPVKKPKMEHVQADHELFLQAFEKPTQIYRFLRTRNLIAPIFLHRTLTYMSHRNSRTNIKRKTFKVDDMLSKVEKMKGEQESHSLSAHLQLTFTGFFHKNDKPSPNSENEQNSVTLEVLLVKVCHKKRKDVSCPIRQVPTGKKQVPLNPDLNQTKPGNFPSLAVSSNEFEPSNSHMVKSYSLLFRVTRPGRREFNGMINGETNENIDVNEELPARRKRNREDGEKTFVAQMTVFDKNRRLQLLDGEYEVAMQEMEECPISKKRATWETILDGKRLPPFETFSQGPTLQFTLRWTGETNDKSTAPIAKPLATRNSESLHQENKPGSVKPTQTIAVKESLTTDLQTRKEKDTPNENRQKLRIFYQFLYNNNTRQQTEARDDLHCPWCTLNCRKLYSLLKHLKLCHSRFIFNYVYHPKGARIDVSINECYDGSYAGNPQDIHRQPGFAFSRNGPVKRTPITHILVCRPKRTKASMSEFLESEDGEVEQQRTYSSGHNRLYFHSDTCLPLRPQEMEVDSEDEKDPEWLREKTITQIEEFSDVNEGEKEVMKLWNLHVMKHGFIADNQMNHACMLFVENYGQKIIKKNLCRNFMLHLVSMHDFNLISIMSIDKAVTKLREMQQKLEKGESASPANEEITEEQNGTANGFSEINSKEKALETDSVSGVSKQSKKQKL
# Target: EZH2 of mESCs (mouse (endogenous in mESCs)) (UniProt Q61188)
# Assay: co-IP; anti-EZH2 antibody captures re-expressed WT and mutant SUZ12 from mESCs; bound and unbound fractions blotted for SUZ12 (prey) and EZH2 (bait); rabbit IgG as negative control
row,Substance,binding
1,3×FLAG-tagged human SUZ12 S583A (from UniProt Q15022 1-739),binds
2,3×FLAG-tagged human SUZ12 WT (from UniProt Q15022 1-739),binds
